The values that follow come from patent US20230151342A1, “ZINC FINGER DEGRADATION DOMAINS” (THE BROAD INSTITUTE, INC, priority 2020, published 2023).

Protein sequences, listed by entry. Tags and fused reporters are not part of them. Lines headed by an entry give the natural chain unless they say otherwise; changes in a name come on top. Chains listed by the source or under a name are the forms on record and can include a tag or linker. Residues count along the entry.
CRBNΔ3 (Q96SW2, form named): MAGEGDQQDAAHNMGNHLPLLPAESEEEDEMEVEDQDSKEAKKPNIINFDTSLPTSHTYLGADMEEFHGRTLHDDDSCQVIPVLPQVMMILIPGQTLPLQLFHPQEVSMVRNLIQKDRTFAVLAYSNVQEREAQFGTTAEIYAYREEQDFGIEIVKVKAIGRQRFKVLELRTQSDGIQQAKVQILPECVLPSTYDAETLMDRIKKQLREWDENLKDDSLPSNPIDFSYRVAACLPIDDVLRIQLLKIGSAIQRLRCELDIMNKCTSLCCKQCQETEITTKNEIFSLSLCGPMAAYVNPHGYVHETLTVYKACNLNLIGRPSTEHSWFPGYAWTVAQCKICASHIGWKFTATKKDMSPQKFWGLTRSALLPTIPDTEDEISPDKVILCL
UniProt Q9UKT9, residues 130-189: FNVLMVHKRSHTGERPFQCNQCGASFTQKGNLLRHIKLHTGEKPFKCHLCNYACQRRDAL

These are yes or no findings as the source states them, for the method shown. Some binding calls cover weakened binding; strength is not graded here.

The assay addresses CRBNΔ3 (UniProt Q96SW2). In words: NanoBRET between Nanoluc- and HaloTag-bearing proteins in 293T cells, with MG132 and lenalidomide (FIG. 16); binding depends on lenalidomide.

In the case of “dIKZF3 (zinc finger degron from IKZF3) (from UniProt Q9UKT9 130-189)”, the binding result is reported as “binds”.
